Measured values published in patent EP0971740B1.
No constants are given. Whether binding was seen depends on the method and setting. Some binding calls cover weakened binding; strength is not graded here.

Protein sequences, listed by entry. Tags and fused reporters are not part of them. Residues count along the entry.
UniProt P14738, residues 620-878: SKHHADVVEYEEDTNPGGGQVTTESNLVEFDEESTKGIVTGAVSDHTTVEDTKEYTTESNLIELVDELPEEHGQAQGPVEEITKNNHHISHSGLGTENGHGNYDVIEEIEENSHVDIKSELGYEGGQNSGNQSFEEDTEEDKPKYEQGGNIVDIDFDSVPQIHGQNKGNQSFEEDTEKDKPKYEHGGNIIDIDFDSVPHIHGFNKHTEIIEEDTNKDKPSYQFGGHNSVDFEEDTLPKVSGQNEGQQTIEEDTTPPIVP
UniProt P02751, residues 32-290: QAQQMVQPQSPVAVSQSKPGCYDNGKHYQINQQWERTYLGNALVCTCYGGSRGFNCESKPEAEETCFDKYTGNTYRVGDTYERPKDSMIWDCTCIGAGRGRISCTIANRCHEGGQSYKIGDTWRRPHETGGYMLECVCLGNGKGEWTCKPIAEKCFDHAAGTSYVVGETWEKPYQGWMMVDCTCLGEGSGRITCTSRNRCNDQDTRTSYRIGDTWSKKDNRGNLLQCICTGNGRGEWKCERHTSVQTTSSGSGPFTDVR

Molecular target: GST-Du1234 (Schistosoma japonicum; Staphylococcus aureus) (UniProt P14738)
Assay: 125I-N29 (8 x 10^4 cpm) on GST-Du1234 coated wells

## N29, N-terminal fragment of fibronectin (from UniProt P02751 32-290) (ligand)
  binding: binds
